# Over roughly 33,000 sequences, “E-score (-0.5 to 0.5)” has its median near -0.0014; the highest 2% begin near 0.25. The list shows a part of the results.
# Target: T1, Cad1 (UniProt P24813)
# T1 sequence: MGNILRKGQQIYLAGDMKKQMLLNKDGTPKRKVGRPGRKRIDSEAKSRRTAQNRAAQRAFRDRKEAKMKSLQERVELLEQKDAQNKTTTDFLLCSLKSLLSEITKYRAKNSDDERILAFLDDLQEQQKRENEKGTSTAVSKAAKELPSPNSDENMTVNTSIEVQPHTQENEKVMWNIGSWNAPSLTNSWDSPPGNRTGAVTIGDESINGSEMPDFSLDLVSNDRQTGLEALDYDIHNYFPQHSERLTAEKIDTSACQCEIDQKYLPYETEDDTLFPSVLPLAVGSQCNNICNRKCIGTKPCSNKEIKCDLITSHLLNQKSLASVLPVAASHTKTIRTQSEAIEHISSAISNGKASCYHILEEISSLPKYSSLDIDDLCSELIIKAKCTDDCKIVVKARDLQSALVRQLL
# Test: PBM E-score (8-mer binding enrichment) (E-score (-0.5 to 0.5)); higher = stronger / more preferred TF binding
# Settings: protein concentration: 100 nM; construct: GST-full length
# Summary of the method: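 PURExpress in vitro transcription/translation supplied GST-tagged yeast transcription factors, either full-length or DNA-binding domain. Applied at about 100-200 nM to universal all-10-mer Agilent arrays double-stranded by primer extension, the bound protein was detected with fluorescent anti-GST. E-scores, modified Wilcoxon-Mann-Whitney statistics, were given by the Universal PBM Analysis Suite to ungapped eight-base words pooled with their reverse complements after masliner normalisation.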
row,Sequence,PBM E-score
1,AGGATTGG,-0.0802
2,AACCGCTC,-0.135
3,AGAGATCG,0.0688
4,AGAAGCAA,-0.0141
5,CACAAGTA,-0.0393
6,AATCCACT,-0.00921
7,GCCTCGCA,-0.155
8,CATGTAAG,0.129
9,CTAAGGCC,0.0544
10,ACGTGTCT,-0.0413
11,CCGAGGAA,0.0902
12,ACTGCAAG,-0.165
13,CTGCCAGC,-0.0309
14,CCAGAGTA,-0.11
15,TCTTAGAA,0.192
16,CACTTATA,0.0359
17,GGAGAGTA,-0.187
18,ACCATCGC,0.152
19,ACTTTTGA,-0.0408
20,CGACTTCA,0.0294
21,ACACACTG,0.104
22,ACAATACG,0.0611
23,AACATCCG,0.141
24,GTTGCTTA,0.261
25,AACTTTGC,0.0556

row,Sequence,PBM E-score
1,CGAGTTTA,-0.0253
2,CCACTTTA,-0.0449
3,CCAAATTA,0.107
4,AAACCGAA,-0.0175
5,CCCTAACG,0.0377
6,GCGTGTTA,0.0162
7,CAATGACC,-0.246
8,GCGTGATA,0.0363
9,ACACATAT,0.148
10,CACTAAGG,0.0116
11,CTGAGGTA,-0.046
12,ACTTCATA,-0.0903
13,ACAGTGCA,0.16
14,CACGGATA,0.22
15,AAAGTGCC,-0.203
16,GCTATTGA,-0.0494
17,CATTGTTC,0.118
18,AATAGCCG,-0.0148
19,ACGGTAGA,-0.211
20,AGACAACG,-0.0176
21,CGGATGAG,-0.0451
22,AAAAGAGA,0.0357
23,AATTATAC,0.172
24,ACCCATCG,-0.111
25,CCTACACA,-0.0437

row,Sequence,PBM E-score
1,ATGCCGGG,-0.164
2,TCAGCTGA,0.31
3,ATGAGCAG,0.0829
4,ACTTTGCG,0.0838
5,ACCATCCG,-0.081
6,CTAGTAAC,-0.101
7,GACAATAA,0.152
8,CGACACTC,0.0197
9,ATCCTCCG,-0.0633
10,ATCGTCGC,0.204
11,CAGCGCGG,0.112
12,CCTACGAA,-0.109
13,GAAGGTCA,-0.195
14,CCGTTCAC,-0.094
15,ATTGATGG,0.132
16,CGACGGAG,-0.00272
17,CACCGGTG,-0.239
18,CGCATCGC,0.017
19,GAATCTCC,-0.0557
20,CCCTTCTC,-0.243
21,CTTGTGTA,0.134
22,CCGAAAGA,0.132
23,ACCTCCTC,-0.148
24,ATTCTTGG,0.0331
25,ATTAAACC,0.0795

# Individual results from above.
# Entry for ATGAGCAG under PBM E-score: 0.0829
# Entry for ATTGATGG under PBM E-score: 0.132
# Entry for CTTGTGTA under PBM E-score: 0.134
# Entry for GAAGGTCA under PBM E-score: -0.195
# Entry for CCGAAAGA under PBM E-score: 0.132
# Entry for CAGCGCGG under PBM E-score: 0.112

# Next part

row,Sequence,PBM E-score
1,CGGACGAA,0.274
2,ACGGGCCC,-0.129
3,GGACTTGA,-0.232
4,GGCCCACC,-0.116
5,AGACCCCT,-0.3
6,ATCAATGA,0.139
7,GAGGGGAA,-0.116
8,CGATTCTC,0.0405
9,ACGTACTA,0.0515
10,GCGCTCCA,0.0337
11,GACCCGCA,-0.0562
12,CCTACTCC,-0.163
13,CGCGCTCC,0.133
14,AACTCCGG,0.156
15,GAGTGCTA,-0.0874
16,ATCTATAG,0.0164
17,CTGATCCA,0.0536
18,ACATCAAG,0.0394
19,ATCGCTAC,0.0212
20,AGTTACCG,0.101
21,ACGGTATG,0.015
22,TGAACCAA,0.218
23,AAATCAAA,0.189
24,AGTTTGTC,0.086
25,CATATTCG,0.129

row,Sequence,PBM E-score
1,GTAGACAA,-0.0874
2,GCGTATAA,0.00384
3,TCGAACAA,0.24
4,CTGGCTCA,0.0881
5,CGTGGGAC,0.0724
6,AATATAGG,0.123
7,CTCCACGA,-0.0309
8,GAATTGAC,-0.0429
9,ATGCCTTG,-0.162
10,CCAGGGCG,-0.18
11,ACATCTGG,-0.0409
12,GAAGGAGC,-0.432
13,GCCCCACA,-0.159
14,AAAGAGCG,-0.00921
15,AACAAGCC,-0.0634
16,GCTATTCC,-0.249
17,CGTCCTTA,-0.0464
18,GCGGGTCC,-0.207
19,CACTTACA,0.216
20,CCCTATCC,-0.305
21,AAAGAAAT,0.122
22,GCTGTCGA,-0.00555
23,AAAAAGCG,0.146
24,ACCGACAA,-0.135
25,GGGGCTCA,-0.294

row,Sequence,PBM E-score
1,CGGGACCA,-0.178
2,AATTTCAT,0.0941
3,ATTCCCCG,-0.0432
4,CATTTGAG,0.00166
5,CACTGCTG,-0.0886
6,AGTAGATC,-0.191
7,CTGAGTGA,0.187
8,CAACAGTA,0.028
9,AATATTCA,0.157
10,AAGTCCCA,-0.209
11,AAACCCCC,-0.373
12,AGACTTTC,-0.0105
13,CTATCTCA,-0.0815
14,ACATAATC,0.309
15,AGAGGAAT,-0.205
16,GATGCGTA,0.0108
17,CAGTTCTC,-0.0867
18,CAAGCTTG,-0.294
19,ATGCCCTG,-0.0413
20,ACCTTCTG,-0.064
21,AGAGTATA,-0.0657
22,GAGTTCCC,-0.0222
23,ATGAGCCG,-0.0145
24,CGCCCGTC,0.0201
25,AATACGGG,-0.0773

row,Sequence,PBM E-score
1,ACAGCGCC,-0.0091
2,AAGACCTA,-0.0863
3,ACAGGTCA,-0.179
4,CTCGGGTA,-0.0583
5,GCGCCGCC,0.137
6,ATTCTACG,0.0286
7,GTAAGGTA,0.0927
8,GTGTACTA,0.0433
9,GTCGGAAA,0.226
10,ACTTTCCG,0.125
11,AGCAATAC,0.107
12,ATCAATTA,0.255
13,TGTGTGAA,-0.0643
14,ACCTTGGG,0.0381
15,AGGTGGCG,-0.115
16,AATGTAGT,0.0937
17,ACTTGAGA,0.016
18,TCTACAAA,-0.065
19,AACATGTA,0.117
20,AATCTTAT,0.103
21,GTTTTCGA,0.0375
22,AAAGTTCC,-0.151
